No constants are given. Whether binding was seen depends on the method and setting. In cells and extracts the contact can be indirect. Here binding means that the protein was enriched with, or labelled near, the bait; the list need not be complete. Where a sequence is shown, tags or fusion partners need not be part of it.
T1: V5-tagged KITENIN (UniProt Q8TAA9)
T1 sequence: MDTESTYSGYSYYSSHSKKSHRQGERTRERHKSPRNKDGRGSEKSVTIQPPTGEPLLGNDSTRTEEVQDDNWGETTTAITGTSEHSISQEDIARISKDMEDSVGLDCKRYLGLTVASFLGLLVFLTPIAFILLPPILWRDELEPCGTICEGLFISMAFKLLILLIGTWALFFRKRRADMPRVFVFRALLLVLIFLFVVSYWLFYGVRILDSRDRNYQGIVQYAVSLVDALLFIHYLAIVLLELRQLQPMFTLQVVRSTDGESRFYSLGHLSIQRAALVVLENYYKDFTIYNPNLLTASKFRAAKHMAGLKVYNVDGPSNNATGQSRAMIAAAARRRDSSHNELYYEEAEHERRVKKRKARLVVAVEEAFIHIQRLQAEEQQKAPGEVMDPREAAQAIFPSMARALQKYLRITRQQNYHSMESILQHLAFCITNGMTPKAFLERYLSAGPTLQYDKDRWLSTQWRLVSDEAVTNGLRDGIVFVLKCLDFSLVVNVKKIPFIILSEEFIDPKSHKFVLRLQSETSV

By UniProt entry, the sequences of proteins in these tests, tags left out.
UniProt Q9HD67: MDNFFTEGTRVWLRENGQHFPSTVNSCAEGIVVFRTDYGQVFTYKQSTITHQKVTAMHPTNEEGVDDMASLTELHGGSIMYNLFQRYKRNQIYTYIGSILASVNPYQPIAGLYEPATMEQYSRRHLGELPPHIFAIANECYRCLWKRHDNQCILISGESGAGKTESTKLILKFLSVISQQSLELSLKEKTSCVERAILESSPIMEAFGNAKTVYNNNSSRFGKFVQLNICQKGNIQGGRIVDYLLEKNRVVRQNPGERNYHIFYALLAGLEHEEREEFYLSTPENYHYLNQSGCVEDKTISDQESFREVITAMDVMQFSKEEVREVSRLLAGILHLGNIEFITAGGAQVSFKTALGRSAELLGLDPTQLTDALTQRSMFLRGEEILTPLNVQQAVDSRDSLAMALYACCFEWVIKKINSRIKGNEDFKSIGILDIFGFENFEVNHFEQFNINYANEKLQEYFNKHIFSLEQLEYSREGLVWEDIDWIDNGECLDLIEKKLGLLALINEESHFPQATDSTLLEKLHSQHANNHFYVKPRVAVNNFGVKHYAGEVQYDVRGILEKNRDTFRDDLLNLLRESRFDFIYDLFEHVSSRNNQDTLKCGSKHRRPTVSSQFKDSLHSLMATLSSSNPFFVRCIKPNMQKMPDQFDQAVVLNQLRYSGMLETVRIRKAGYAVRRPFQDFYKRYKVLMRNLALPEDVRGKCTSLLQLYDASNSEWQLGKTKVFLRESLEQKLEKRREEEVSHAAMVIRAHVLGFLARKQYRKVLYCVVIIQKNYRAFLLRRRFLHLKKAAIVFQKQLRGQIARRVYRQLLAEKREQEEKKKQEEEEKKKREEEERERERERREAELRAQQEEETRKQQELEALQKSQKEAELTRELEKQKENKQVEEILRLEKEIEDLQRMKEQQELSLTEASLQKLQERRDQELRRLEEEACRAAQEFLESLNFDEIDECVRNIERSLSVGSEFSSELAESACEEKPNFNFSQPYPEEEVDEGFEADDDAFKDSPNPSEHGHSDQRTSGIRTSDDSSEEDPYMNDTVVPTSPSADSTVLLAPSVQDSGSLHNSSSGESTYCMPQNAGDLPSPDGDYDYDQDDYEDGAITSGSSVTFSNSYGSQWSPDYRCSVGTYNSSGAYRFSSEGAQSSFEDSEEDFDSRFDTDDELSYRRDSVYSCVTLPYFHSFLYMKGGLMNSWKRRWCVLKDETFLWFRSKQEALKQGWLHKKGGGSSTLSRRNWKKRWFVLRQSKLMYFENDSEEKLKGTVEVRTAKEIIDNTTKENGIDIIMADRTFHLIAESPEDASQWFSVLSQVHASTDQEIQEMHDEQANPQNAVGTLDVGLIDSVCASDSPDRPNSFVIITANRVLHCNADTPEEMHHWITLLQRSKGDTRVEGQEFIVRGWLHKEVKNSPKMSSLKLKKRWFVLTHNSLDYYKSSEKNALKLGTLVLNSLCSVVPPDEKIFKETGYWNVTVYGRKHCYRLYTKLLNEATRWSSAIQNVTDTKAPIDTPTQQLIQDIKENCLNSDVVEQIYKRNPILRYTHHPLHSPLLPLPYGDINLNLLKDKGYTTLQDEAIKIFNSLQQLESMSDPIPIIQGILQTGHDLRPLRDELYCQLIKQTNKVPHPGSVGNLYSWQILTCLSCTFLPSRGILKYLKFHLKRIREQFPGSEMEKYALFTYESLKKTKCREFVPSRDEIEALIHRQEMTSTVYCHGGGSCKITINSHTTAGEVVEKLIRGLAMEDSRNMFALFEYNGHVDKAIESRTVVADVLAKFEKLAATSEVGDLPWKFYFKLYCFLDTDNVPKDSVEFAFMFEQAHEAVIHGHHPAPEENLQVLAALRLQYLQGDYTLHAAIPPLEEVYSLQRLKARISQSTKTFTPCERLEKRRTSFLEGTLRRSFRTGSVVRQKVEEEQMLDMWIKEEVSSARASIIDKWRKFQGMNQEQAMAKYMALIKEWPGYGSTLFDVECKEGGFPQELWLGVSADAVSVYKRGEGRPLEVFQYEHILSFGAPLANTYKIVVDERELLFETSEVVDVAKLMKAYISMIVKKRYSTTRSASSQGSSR

T2: Myc-tagged KITENIN (KAI1 C-terminal interacting tetraspanin; Vangl1) (UniProt Q8TAA9)
T2 sequence: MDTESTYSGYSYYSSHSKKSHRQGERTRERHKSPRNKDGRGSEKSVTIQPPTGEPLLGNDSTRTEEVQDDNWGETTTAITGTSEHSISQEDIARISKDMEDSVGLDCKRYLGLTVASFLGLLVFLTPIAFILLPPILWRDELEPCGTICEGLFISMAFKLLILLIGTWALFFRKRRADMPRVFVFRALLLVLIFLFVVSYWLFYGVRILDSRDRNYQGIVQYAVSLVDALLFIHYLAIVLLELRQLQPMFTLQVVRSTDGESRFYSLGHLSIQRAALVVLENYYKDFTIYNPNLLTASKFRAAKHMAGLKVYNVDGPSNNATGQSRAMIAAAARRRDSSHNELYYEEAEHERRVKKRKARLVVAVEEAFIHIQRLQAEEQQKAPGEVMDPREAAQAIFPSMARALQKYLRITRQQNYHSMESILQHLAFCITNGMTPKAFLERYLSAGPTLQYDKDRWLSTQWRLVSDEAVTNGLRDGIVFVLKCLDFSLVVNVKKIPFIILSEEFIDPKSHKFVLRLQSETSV


Legend:
[1] = target: T1, V5-tagged KITENIN; test: affinity purification with mass spectrometry; Caco2/KITENIN-V5 cells treated with scr-peptide or KDIP, IP with anti-V5 antibody, SDS-PAGE, Coomassie blue, bands that changed cut out for peptide mass fingerprinting
[2] = target: T2, Myc-tagged KITENIN (KAI1 C-terminal interacting tetraspanin; Vangl1); test: affinity purification with mass spectrometry; lysate of KITENIN-myc-overexpressing 293T cells precipitated with Myc-Tag antibody, SDS-PAGE, 130-kDa band identified by peptide mass fingerprinting (MALDI-TOF)

Molecule	binding [1]	binding [2]
myosin-X (Myo10), endogenous (from UniProt Q9HD67 1-2058)	binds	
endogenous KITENIN (natural protein, UniProt Q8TAA9 1-524, looked up, KITENIN (Vangl1), endogenous; also called endogenous KITENIN dimer; source: endogenous, HEK293T, HCT116 or Caco2 lysate) MDTESTYSGYSYYSSHSKKSHRQGERTRERHKSPRNKDGRGSEKSVTIQPPTGEPLLGNDSTRTEEVQDDNWGETTTAITGTSEHSISQEDIARISKDMEDSVGLDCKRYLGLTVASFLGLLVFLTPIAFILLPPILWRDELEPCGTICEGLFISMAFKLLILLIGTWALFFRKRRADMPRVFVFRALLLVLIFLFVVSYWLFYGVRILDSRDRNYQGIVQYAVSLVDALLFIHYLAIVLLELRQLQPMFTLQVVRSTDGESRFYSLGHLSIQRAALVVLENYYKDFTIYNPNLLTASKFRAAKHMAGLKVYNVDGPSNNATGQSRAMIAAAARRRDSSHNELYYEEAEHERRVKKRKARLVVAVEEAFIHIQRLQAEEQQKAPGEVMDPREAAQAIFPSMARALQKYLRITRQQNYHSMESILQHLAFCITNGMTPKAFLERYLSAGPTLQYDKDRWLSTQWRLVSDEAVTNGLRDGIVFVLKCLDFSLVVNVKKIPFIILSEEFIDPKSHKFVLRLQSETSV		binds
